Measurements reported in patent publication US6403087.
No constants are given. Whether binding was seen depends on the method and setting. Some binding calls cover weakened binding; strength is not graded here.

Chains of the proteins cited; added tags and fusions are not shown. Lines headed by an entry give the natural chain unless they say otherwise; changes in a name come on top. Residues count along the entry.
UniProt P09225: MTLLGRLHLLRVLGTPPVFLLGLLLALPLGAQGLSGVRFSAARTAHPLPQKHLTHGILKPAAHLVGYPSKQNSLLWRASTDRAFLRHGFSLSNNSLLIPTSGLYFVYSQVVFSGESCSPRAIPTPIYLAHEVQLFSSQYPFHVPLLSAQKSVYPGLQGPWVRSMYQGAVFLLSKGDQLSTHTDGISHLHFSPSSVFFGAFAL
UniProt P41155: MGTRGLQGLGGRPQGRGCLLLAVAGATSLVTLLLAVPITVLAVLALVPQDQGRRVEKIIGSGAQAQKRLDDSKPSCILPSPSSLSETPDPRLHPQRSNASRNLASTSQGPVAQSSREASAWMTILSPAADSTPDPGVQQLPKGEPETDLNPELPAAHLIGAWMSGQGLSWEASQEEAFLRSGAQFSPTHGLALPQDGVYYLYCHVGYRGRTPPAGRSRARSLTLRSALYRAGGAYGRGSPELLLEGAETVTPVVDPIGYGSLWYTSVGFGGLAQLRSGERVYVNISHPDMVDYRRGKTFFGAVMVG
UniProt P50284, residues 31-223: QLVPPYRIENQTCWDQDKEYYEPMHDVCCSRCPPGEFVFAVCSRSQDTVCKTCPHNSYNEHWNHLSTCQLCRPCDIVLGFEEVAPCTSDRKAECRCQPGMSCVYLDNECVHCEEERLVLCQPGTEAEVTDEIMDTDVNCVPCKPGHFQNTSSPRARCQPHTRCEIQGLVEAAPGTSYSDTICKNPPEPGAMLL

Molecular target: soluble murine LT-α/β ligand (mLT-α/β) (mouse) (UniProt P09225+P41155)
Test: told of the WEHI 164 cytotoxicity assay, fusion protein at 10 µg/ml

For “soluble murine LT-β receptor coupled to the human IgG1 Fc domain (mLT-β-R-Fc) (from UniProt P50284 31-223) (Fc fusion)”, the binding was “binds”.
